These are yes or no findings as the source states them, for the method shown. In cells and extracts the contact can be indirect. Some results given as binding are weak or reduced against the parent protein; the word gives no strength. For part of these data: Tags and fused reporters may be left off the sequences shown.
How the values were obtained:
[1] = target: T1, Flag-Myc-Bgcn (Drosophila) (UniProt Q9W1I2); assay: co-IP; two-step co-immunoprecipitation from S2 cells co-expressing TAP-Tut, Flag-Bam and Flag-Myc-Bgcn: IgG beads, TEV elution, then anti-Myc beads; Western blot with anti-SBP, anti-Flag, anti-Myc
T1 sequence: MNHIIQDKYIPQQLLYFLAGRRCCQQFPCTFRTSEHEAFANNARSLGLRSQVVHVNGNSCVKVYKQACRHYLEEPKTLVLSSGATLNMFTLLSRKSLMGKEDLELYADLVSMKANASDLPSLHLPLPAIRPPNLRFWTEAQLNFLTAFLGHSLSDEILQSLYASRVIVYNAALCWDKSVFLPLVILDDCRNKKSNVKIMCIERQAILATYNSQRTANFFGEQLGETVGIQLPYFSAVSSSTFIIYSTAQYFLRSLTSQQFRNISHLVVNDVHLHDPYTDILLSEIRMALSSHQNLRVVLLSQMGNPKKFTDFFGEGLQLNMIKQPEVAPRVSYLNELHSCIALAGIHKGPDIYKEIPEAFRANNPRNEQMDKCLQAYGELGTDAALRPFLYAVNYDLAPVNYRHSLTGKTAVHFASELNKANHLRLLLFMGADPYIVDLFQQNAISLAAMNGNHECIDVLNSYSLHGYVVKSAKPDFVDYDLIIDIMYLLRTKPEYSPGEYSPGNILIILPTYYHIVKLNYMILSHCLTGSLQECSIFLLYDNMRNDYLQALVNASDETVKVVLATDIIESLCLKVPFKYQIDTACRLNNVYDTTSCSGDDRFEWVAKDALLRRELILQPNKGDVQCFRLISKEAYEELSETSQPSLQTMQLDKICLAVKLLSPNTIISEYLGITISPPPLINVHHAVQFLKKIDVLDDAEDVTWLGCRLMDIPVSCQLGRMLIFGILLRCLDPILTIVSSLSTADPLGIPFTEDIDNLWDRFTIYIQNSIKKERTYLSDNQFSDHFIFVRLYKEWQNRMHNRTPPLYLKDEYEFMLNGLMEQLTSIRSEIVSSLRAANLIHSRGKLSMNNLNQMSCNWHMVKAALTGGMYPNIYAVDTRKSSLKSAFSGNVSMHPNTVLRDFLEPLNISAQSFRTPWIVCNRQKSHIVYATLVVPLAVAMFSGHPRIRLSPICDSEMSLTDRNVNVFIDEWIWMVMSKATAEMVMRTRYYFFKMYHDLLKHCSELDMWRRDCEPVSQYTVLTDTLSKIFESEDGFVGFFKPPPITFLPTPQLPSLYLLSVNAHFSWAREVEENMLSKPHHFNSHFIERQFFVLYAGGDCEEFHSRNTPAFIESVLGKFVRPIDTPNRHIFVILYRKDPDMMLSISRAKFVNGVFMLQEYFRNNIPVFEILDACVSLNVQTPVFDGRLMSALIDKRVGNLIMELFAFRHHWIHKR

[2] = target: T2, TAP-Tut (Drosophila) (UniProt Q8IQA2); assay: as above
T2 sequence: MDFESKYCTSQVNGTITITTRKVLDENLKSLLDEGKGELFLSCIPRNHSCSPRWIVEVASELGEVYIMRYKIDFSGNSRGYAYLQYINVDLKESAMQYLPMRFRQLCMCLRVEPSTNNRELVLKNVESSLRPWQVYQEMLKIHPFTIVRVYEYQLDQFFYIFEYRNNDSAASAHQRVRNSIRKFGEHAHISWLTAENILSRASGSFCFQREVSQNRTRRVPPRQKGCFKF

[3] = target: T3, Myc-Tut (Drosophila) (UniProt Q8IQA2); assay: co-IP; S2 cells over-expressing Flag-Bam and Myc-Tut; lysates immunoprecipitated with anti-Myc or anti-Flag beads, 4 h at 4°C, Western blot
T3 sequence: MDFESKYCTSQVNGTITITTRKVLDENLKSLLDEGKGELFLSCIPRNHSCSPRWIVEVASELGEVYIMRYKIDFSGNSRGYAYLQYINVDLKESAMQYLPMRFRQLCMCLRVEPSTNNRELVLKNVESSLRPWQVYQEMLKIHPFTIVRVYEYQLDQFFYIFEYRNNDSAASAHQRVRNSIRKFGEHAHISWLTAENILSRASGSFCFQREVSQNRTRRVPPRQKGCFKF

[4] = target: T1, Flag-Myc-Bgcn (Drosophila); assay: co-IP; S2 cell lysates incubated with 0.5 µg/uL RNaseA for 30 min at room temperature, then immunoprecipitated with anti-Myc beads; Western blot for TAP-, Flag- or Myc-tagged proteins
[5] = target: T4, Flag-Bam (Drosophila) (UniProt P22745); assay: co-IP; S2 cells over-expressing Flag-Bam and Myc-Tut; lysates immunoprecipitated with anti-Myc or anti-Flag beads, 4 h at 4°C, Western blot
T4 sequence: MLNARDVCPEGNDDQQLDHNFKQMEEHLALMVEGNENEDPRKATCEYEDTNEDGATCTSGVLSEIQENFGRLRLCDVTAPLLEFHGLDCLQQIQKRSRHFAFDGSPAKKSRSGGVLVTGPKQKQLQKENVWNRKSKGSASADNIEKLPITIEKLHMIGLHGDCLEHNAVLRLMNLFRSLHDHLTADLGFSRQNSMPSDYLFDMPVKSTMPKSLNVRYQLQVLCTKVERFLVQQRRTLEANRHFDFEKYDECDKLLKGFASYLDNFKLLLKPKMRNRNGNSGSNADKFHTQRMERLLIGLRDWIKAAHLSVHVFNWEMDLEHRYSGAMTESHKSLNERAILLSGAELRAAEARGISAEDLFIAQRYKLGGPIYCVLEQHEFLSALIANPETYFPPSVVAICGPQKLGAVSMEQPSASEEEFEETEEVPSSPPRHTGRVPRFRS

[6] = target: T5, Tut-TAP (Drosophila) (UniProt Q8IQA2); assay: co-IP; testis extracts (300-500 pairs of testes) of tutP-tutTAP; bamP-bgcnGFP flies immunoprecipitated with IgG beads; Western blot
T5 sequence: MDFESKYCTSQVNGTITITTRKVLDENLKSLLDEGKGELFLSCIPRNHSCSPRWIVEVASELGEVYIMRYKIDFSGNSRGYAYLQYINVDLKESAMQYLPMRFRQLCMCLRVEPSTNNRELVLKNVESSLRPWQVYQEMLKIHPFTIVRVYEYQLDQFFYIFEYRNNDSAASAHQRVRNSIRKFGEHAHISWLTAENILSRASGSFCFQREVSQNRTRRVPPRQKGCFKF

B1: Flag-Bam (protein, UniProt P22745 1-442)
chain: MLNARDVCPEGNDDQQLDHNFKQMEEHLALMVEGNENEDPRKATCEYEDTNEDGATCTSGVLSEIQENFGRLRLCDVTAPLLEFHGLDCLQQIQKRSRHFAFDGSPAKKSRSGGVLVTGPKQKQLQKENVWNRKSKGSASADNIEKLPITIEKLHMIGLHGDCLEHNAVLRLMNLFRSLHDHLTADLGFSRQNSMPSDYLFDMPVKSTMPKSLNVRYQLQVLCTKVERFLVQQRRTLEANRHFDFEKYDECDKLLKGFASYLDNFKLLLKPKMRNRNGNSGSNADKFHTQRMERLLIGLRDWIKAAHLSVHVFNWEMDLEHRYSGAMTESHKSLNERAILLSGAELRAAEARGISAEDLFIAQRYKLGGPIYCVLEQHEFLSALIANPETYFPPSVVAICGPQKLGAVSMEQPSASEEEFEETEEVPSSPPRHTGRVPRFRS
binding [1]: binds
binding [2]: binds
binding [3]: binds
binding [4]: binds

B2: Myc-Tut (protein, UniProt Q8IQA2 1-230)
chain: MDFESKYCTSQVNGTITITTRKVLDENLKSLLDEGKGELFLSCIPRNHSCSPRWIVEVASELGEVYIMRYKIDFSGNSRGYAYLQYINVDLKESAMQYLPMRFRQLCMCLRVEPSTNNRELVLKNVESSLRPWQVYQEMLKIHPFTIVRVYEYQLDQFFYIFEYRNNDSAASAHQRVRNSIRKFGEHAHISWLTAENILSRASGSFCFQREVSQNRTRRVPPRQKGCFKF
binding [5]: binds

B3: Bam (protein, UniProt P22745 1-442)
chain: MLNARDVCPEGNDDQQLDHNFKQMEEHLALMVEGNENEDPRKATCEYEDTNEDGATCTSGVLSEIQENFGRLRLCDVTAPLLEFHGLDCLQQIQKRSRHFAFDGSPAKKSRSGGVLVTGPKQKQLQKENVWNRKSKGSASADNIEKLPITIEKLHMIGLHGDCLEHNAVLRLMNLFRSLHDHLTADLGFSRQNSMPSDYLFDMPVKSTMPKSLNVRYQLQVLCTKVERFLVQQRRTLEANRHFDFEKYDECDKLLKGFASYLDNFKLLLKPKMRNRNGNSGSNADKFHTQRMERLLIGLRDWIKAAHLSVHVFNWEMDLEHRYSGAMTESHKSLNERAILLSGAELRAAEARGISAEDLFIAQRYKLGGPIYCVLEQHEFLSALIANPETYFPPSVVAICGPQKLGAVSMEQPSASEEEFEETEEVPSSPPRHTGRVPRFRS
binding [6]: binds

From publication PMC4238977
